Some results were stated once for a whole list of compounds, not compound by compound.
Assay: 1H NMR titration (direct or competition with Cl^−), binding of DPP^−
Settings: TMA^+ salt, D2O:acetone-d6 (60:40, v/v), NMR titrations at 25° C.

Question: Which “Association constant Ka, 1:1 complex with DPP^−” value does the source give for `COCCOCCOCCOCC(C)(C)C(=O)Nc1ccc2cc1C(=O)Nc1ccc(NC(=O)C(C)(C)COCCOCCOCCOC)c(c1)C(=O)Nc1ccc(NC(=O)C(C)(C)COCCOCCOCCOC)c(c1)C(=O)Nc1ccc(NC(=O)C(C)(C)COCCOCCOCCOC)c(c1)C(=O)Nc1ccc(NC(=O)C(C)(C)COCCOCCOCCOC)c(c1)C(=O)N2` [c5b] here?
Answer: over 10^3 M^−1

— US20260272879A1, “ANION-BINDING AROMATIC OLIGOAMIDE MACROCYCLES AND METHODS OF MAKING AND USING SAME” (The Research Foundation for The State University of New York, priority 2023, published 2026)
